Results published in the supplement of paper PMC8728848.
The other results are listed elsewhere or left out.

How the values were obtained:
Experiment in all cases: glycan array binding signal (z-score within array); higher = stronger binding
Settings in all cases: glycan notation: IUPAC condensed, linker removed
[1] = target: Gal(b1-3)[Fuc(a1-4)]GlcNAc(b1-3)Gal(b1-4)GlcNAc
Method in brief: (§1)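 Negative Z-scores can be read as non-binding. The Z-score is calculated within each array and then averaged across arrays of one protein sequence at different concentrations or buffers and across linkers. Arrays, 3228 in all, were curated from the Consortium for Functional Glycomics database and kept only where the protein sequence was available.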

[2] = target: Gal(b1-3)[Fuc(a1-4)]GlcNAc(b1-3)Gal(b1-4)[Fuc(a1-3)]GlcNAc
Method in brief: as §1

[3] = target: Gal(b1-3)[GlcNAc(b1-6)]GalNAc
Method in brief: as §1

[4] = target: Gal(b1-3)[Neu5Ac(a2-6)]GalNAc
Method in brief: as §1

[5] = target: Gal(b1-3)[Neu5Ac(a2-6)]GlcNAc(b1-6)Gal(b1-4)Glc
Method in brief: as §1

[6] = target: Gal(b1-3)[Neu5Ac(b2-6)]GalNAc
Method in brief: as §1

Gal(b1-4)Gal = target: Gal(b1-4)Gal
Method in brief: as §1

[7] = target: Gal(b1-4)GalNAc(a1-3)[Fuc(a1-2)]Gal(b1-4)GlcNAc
Method in brief: as §1

[8] = target: Gal(b1-4)GalNAc(b1-3)[Fuc(a1-2)]Gal(b1-4)GlcNAc
Method in brief: as §1

Gal(b1-4)Glc = target: Gal(b1-4)Glc
Method in brief: as §1

Gal(b1-4)Glc6S = target: Gal(b1-4)Glc6S
Method in brief: as §1

Gal(b1-4)GlcNAc = target: Gal(b1-4)GlcNAc
Method in brief: as §1

[9] = target: Gal(b1-4)GlcNAc(a1-6)Gal(b1-4)GlcNAc
Method in brief: as §1

Gal(b1-4)GlcNAc(b1-2)Man = target: Gal(b1-4)GlcNAc(b1-2)Man
Method in brief: as §1

[10] = target: Gal(b1-4)GlcNAc(b1-2)Man(a1-3)Man(b1-4)GlcNAc(b1-4)GlcNAc
Method in brief: as §1

[11] = target: Gal(b1-4)GlcNAc(b1-2)Man(a1-3)[Gal(b1-4)GlcNAc(b1-2)Man(a1-6)]Man(b1-4)GlcNAc(b1-4)GlcNAc
Method in brief: as §1

[12] = target: Gal(b1-4)GlcNAc(b1-2)Man(a1-3)[Gal(b1-4)GlcNAc(b1-2)Man(a1-6)]Man(b1-4)GlcNAc(b1-4)[Fuc(a1-6)]GlcNAc
Method in brief: as §1

[13] = target: Gal(b1-4)GlcNAc(b1-2)Man(a1-3)[Gal(b1-4)GlcNAc(b1-2)][GlcNAc(b1-4)]Man(b1-4)GlcNAc(b1-4)GlcNAc
Method in brief: as §1

[14] = target: Gal(b1-4)GlcNAc(b1-2)Man(a1-3)[GlcNAc(b1-2)Man(a1-6)]Man(b1-4)GlcNAc(b1-4)GlcNAc
Method in brief: as §1

[15] = target: Gal(b1-4)GlcNAc(b1-2)Man(a1-3)[Man(a1-6)]Man(b1-4)GlcNAc(b1-4)GlcNAc
Method in brief: as §1

[16] = target: Gal(b1-4)GlcNAc(b1-2)Man(a1-6)Man(b1-4)GlcNAc(b1-4)GlcNAc
Method in brief: as §1

[17] = target: Gal(b1-4)GlcNAc(b1-2)Man(a1-6)[GlcNAc(b1-2)Man(a1-3)]Man(b1-4)GlcNAc(b1-4)GlcNAc
Method in brief: as §1

[18] = target: Gal(b1-4)GlcNAc(b1-2)Man(a1-6)[Man(a1-3)]Man(b1-4)GlcNAc(b1-4)GlcNAc
Method in brief: as §1

[19] = target: Gal(b1-4)GlcNAc(b1-2)[Gal(b1-4)GlcNAc(b1-4)]Man(a1-3)[Gal(b1-4)GlcNAc(b1-2)Man(a1-6)]Man(b1-4)GlcNAc(b1-4)GlcNAc
Method in brief: as §1

[20] = target: Gal(b1-4)GlcNAc(b1-2)[Gal(b1-4)GlcNAc(b1-4)]Man(a1-3)[Gal(b1-4)GlcNAc(b1-2)[Gal(b1-4)GlcNAc(b1-6)]Man(a1-6)]Man(b1-4)GlcNAc(b1-4)GlcNAc
Method in brief: as §1

[21] = target: Gal(b1-4)GlcNAc(b1-2)[Gal(b1-4)GlcNAc(b1-4)]Man(a1-3)[GlcNAc(b1-4)][Gal(b1-4)GlcNAc(b1-2)Man(a1-6)]Man(b1-4)GlcNAc(b1-4)GlcNAc
Method in brief: as §1

[22] = target: Gal(b1-4)GlcNAc(b1-2)[Gal(b1-4)GlcNAc(b1-4)]Man(a1-3)[GlcNAc(b1-4)][Gal(b1-4)GlcNAc(b1-2)[Gal(b1-4)GlcNAc(b1-6)]Man(a1-6)]Man(b1-4)GlcNAc(b1-4)GlcNAc
Method in brief: as §1

[23] = target: Gal(b1-4)GlcNAc(b1-2)[Gal(b1-4)GlcNAc(b1-6)]Man(a1-6)[Gal(b1-4)GlcNAc(b1-2)Man(a1-3)]Man(b1-4)GlcNAc(b1-4)GlcNAc
Method in brief: as §1

[24] = target: Gal(b1-4)GlcNAc(b1-2)[Gal(b1-4)GlcNAc(b1-6)]Man(a1-6)[GlcNAc(b1-4)][Gal(b1-4)GlcNAc(b1-2)Man(a1-3)]Man(b1-4)GlcNAc(b1-4)GlcNAc
Method in brief: as §1

[25] = target: Gal(b1-4)GlcNAc(b1-3)Gal(b1-3)GlcNAc
Method in brief: as §1

[26] = target: Gal(b1-4)GlcNAc(b1-3)Gal(b1-4)Glc
Method in brief: as §1

[27] = target: Gal(b1-4)GlcNAc(b1-3)Gal(b1-4)GlcNAc
Method in brief: as §1

[28] = target: Gal(b1-4)GlcNAc(b1-3)Gal(b1-4)GlcNAc(b1-3)Gal(b1-4)GlcNAc
Method in brief: as §1

[29] = target: Gal(b1-4)GlcNAc(b1-3)Gal(b1-4)[Fuc(a1-3)GlcNAc(b1-6)]Gal(b1-4)Glc
Method in brief: as §1

[30] = target: Gal(b1-4)GlcNAc(b1-3)Gal(b1-4)[Fuc(a1-3)]GlcNAc(b1-3)Gal(b1-4)[Fuc(a1-3)]GlcNAc
Method in brief: as §1

[31] = target: Gal(b1-4)GlcNAc(b1-3)GalNAc
Method in brief: as §1

[32] = target: Gal(b1-4)GlcNAc(b1-3)[Gal(b1-4)GlcNAc(b1-6)]Gal(b1-4)GlcNAc
Method in brief: as §1

B1: CD72 ectodomain (Homo sapiens), P21854 (protein)
chain: RYLQVSQQLQQTNRVLEVTNSSLRQQLRLKITQLGQSAEDLQGSRRELAQSQEALQVEQRAHQAAEGQLQACQADRQKTKETLQSEEQQRRALEQKLSNMENRLKPFFTCGSADTCCPSGWIMHQKSCFYISLTSKNWQESQKQCETLSSKLATFSEIYPQSHSYYFLNSLLPNGGSGNSYWTGLSSNKDWKLTDDTQRTRTYAQSSKCNKVHKTWSWWTLESESCRSSLPYICEMTAFRFPD
B1 was tested, and the “glycan array binding signal (z-score)” value [1] was -0.061, the “glycan array binding signal (z-score)” value [2] was -1.62 and the “glycan array binding signal (z-score)” value [3] was -0.353. The “glycan array binding signal (z-score)” value [4] was 1.43, the “glycan array binding signal (z-score)” value [5] was -0.084 and the “glycan array binding signal (z-score)” value [6] was 0.55. The “glycan array binding signal (z-score)” value (Gal(b1-4)Gal) was -0.485, the “glycan array binding signal (z-score)” value [7] was -0.011 and the “glycan array binding signal (z-score)” value [8] was -0.019. The “glycan array binding signal (z-score)” value (Gal(b1-4)Glc) was -1.2, the “glycan array binding signal (z-score)” value (Gal(b1-4)Glc6S) was -0.067 and the “glycan array binding signal (z-score)” value (Gal(b1-4)GlcNAc) was 0.258. For the same binder, the “glycan array binding signal (z-score)” value [9] was -0.72, the “glycan array binding signal (z-score)” value (Gal(b1-4)GlcNAc(b1-2)Man) was 0.51 and the “glycan array binding signal (z-score)” value [10] was 1.39. For the same binder, the “glycan array binding signal (z-score)” value [11] was 0.293, the “glycan array binding signal (z-score)” value [12] was 1.17 and the “glycan array binding signal (z-score)” value [13] was 1.05. The “glycan array binding signal (z-score)” value [14] was 0.532, the “glycan array binding signal (z-score)” value [15] was 1.3 and the “glycan array binding signal (z-score)” value [16] was 1.33. For the same binder, the “glycan array binding signal (z-score)” value [17] was 0.352, the “glycan array binding signal (z-score)” value [18] was 0.823 and the “glycan array binding signal (z-score)” value [19] was -0.421. The “glycan array binding signal (z-score)” value [20] was -0.561, the “glycan array binding signal (z-score)” value [21] was 0.003 and the “glycan array binding signal (z-score)” value [22] was -1.77. For the same binder, the “glycan array binding signal (z-score)” value [23] was 0.172, the “glycan array binding signal (z-score)” value [24] was -0.655 and the “glycan array binding signal (z-score)” value [25] was -0.795. For the same binder, the “glycan array binding signal (z-score)” value [26] was -0.735, the “glycan array binding signal (z-score)” value [27] was -0.395 and the “glycan array binding signal (z-score)” value [28] was -0.684. The “glycan array binding signal (z-score)” value [29] was -0.359, the “glycan array binding signal (z-score)” value [30] was -1.24 and the “glycan array binding signal (z-score)” value [31] was 0.076. The “glycan array binding signal (z-score)” value [32] was -0.055.
